The target of one assay is T1, Imp1-TAP (S. pombe) (UniProt O94374).
T1 sequence: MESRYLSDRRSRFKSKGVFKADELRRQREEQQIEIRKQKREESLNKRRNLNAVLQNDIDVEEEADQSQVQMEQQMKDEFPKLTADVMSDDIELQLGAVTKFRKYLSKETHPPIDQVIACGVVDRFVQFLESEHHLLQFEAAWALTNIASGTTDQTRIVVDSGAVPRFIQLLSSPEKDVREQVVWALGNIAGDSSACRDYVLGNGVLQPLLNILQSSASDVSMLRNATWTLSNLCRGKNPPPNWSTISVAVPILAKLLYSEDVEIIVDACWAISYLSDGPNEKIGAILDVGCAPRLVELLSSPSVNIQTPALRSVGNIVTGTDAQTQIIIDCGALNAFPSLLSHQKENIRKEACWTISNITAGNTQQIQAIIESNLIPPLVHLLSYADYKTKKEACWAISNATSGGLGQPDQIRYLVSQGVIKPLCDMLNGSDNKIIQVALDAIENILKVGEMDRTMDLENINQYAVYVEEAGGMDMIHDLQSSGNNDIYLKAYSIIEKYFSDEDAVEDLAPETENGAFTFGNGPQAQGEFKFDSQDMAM
Put plainly: pull-down; TAP pull-down: total lysates of iron-starved (Dip 250 µM, 3 h) S. pombe php4Δ cells co-expressing GFP-Php4 and a TAP-tagged karyopherin or TAP alone; IgG-Sepharose 6 Fast-Flow beads, 30 to 60 min at 4°C, washed with lysis buffer; bound fraction blotted with anti-GFP, anti-IgG and anti-α-tubulin.

The next assay deals with T2, Sal3-TAP (S. pombe) (UniProt O74476).
T2 sequence: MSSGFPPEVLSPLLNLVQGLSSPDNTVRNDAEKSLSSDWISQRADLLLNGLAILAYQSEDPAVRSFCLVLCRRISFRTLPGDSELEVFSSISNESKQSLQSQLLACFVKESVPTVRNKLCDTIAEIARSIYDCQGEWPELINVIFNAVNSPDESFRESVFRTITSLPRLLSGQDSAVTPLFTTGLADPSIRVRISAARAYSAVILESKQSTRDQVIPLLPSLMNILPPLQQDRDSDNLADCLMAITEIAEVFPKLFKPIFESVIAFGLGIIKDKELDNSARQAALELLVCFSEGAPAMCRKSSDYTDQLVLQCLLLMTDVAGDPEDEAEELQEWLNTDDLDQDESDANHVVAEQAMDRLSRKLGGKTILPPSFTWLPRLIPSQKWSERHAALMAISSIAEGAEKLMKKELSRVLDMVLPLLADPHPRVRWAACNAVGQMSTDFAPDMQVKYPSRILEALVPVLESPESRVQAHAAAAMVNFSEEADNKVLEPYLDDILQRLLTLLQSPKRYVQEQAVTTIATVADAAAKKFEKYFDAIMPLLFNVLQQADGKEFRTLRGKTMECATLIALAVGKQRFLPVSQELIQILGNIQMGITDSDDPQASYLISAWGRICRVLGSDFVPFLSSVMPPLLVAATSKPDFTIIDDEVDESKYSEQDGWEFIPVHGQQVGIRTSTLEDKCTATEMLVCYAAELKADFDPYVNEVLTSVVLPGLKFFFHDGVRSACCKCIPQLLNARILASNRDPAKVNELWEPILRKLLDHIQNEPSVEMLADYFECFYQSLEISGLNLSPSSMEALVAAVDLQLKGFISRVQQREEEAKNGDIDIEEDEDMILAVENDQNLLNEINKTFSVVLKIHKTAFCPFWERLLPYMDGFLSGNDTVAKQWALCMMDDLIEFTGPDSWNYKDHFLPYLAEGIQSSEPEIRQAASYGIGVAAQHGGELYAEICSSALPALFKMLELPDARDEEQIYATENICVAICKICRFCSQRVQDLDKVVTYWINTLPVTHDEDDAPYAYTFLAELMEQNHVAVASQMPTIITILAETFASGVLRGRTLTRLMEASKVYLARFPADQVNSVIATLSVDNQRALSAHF
The assay is described as above.

Results are given in words; binding and its absence hold for the method and conditions named. In cells and extracts the contact can be indirect.

“α-tubulin (S. pombe (endogenous in S. pombe cells))”: the binding result with Imp1-TAP (S. pombe) and in the assay with Sal3-TAP (S. pombe) was “no binding” throughout.

The record behind these values is article PMC4201560.
